The data set in a line: Volatility of perfuming compounds (Tables 4 to 10), with top/middle/bottom note type. In kind it is physicochemical. The method, then:
In some aspects, the first perfume accord comprises perfuming compounds having a volatility ranging from 70,000 to 100 μg/l in air. In some aspects, perfuming compounds having a volatility ranging from 70,000 to 100 μg/l in air are referred to as “top notes”.
In some aspects, the second perfume accord comprises perfuming compounds having a volatility ranging from 99 to 50 μg/l in air. In some aspects, perfuming compounds having a volatility ranging from 99 to 50 μg/l in air are referred to as “middle notes”.
In some aspects, the third perfume accord comprises perfuming compounds having a volatility ranging from 49 to 0.1 μg/l in air. In some aspects, perfuming compounds having a volatility ranging from 49 to 0.1 μg/l in air are referred to as “bottom notes”.
Tables 4 to 10 describe top, middle and bottom note perfuming compounds for watery, green, fruity, citrus, sweet, gourmand and woody notes respectively.

For the compound `CCCCCCCC1CCC(=O)O1` (racemic) [(+−)-5-heptyldihydro-2(3H)-furanone], the Type result is “Bottom” and the Volatility was 3.67 μg/l air.

These data come from US20240301319A1, “PERFUMING COMPOSITIONS” (FIRMNICH SA, priority 2017, published 2024).
